Experimental data reported in the supplement of paper PMC10849652.
Some of the results follow.

By UniProt entry, the sequences of proteins in these tests, tags left out. Where a name states a change or a piece, a line headed by the entry shows the natural chain unless it says otherwise.
UniProt Q8IWL3: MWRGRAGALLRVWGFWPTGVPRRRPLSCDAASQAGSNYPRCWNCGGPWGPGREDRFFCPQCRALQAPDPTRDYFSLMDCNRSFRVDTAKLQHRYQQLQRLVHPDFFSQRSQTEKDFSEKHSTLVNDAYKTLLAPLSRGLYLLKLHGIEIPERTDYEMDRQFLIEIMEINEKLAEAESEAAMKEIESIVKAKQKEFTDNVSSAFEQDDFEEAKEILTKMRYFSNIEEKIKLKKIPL
UniProt Q01581: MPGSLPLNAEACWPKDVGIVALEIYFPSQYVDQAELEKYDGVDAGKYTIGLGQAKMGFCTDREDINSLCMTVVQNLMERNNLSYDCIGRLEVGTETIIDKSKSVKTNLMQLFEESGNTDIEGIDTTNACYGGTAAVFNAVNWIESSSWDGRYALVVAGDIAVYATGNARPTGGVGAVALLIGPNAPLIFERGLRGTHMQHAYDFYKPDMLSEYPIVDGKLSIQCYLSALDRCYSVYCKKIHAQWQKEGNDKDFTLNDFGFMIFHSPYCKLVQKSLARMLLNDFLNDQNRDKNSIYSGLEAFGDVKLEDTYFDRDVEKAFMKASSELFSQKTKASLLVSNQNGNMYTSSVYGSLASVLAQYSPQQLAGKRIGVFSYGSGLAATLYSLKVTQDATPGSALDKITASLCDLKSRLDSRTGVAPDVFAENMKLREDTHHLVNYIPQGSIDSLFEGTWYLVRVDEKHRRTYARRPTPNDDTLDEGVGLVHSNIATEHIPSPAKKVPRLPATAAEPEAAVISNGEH
UniProt Q8TCT9: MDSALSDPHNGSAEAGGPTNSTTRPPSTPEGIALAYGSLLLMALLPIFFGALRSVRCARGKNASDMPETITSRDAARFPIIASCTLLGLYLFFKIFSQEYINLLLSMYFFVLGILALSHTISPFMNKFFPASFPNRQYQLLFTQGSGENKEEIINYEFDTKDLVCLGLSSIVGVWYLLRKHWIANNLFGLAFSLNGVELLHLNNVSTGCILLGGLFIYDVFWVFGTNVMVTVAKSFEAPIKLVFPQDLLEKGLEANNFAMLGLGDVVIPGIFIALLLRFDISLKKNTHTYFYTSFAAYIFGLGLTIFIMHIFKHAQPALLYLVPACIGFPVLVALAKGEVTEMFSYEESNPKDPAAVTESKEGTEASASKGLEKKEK
UniProt P09429: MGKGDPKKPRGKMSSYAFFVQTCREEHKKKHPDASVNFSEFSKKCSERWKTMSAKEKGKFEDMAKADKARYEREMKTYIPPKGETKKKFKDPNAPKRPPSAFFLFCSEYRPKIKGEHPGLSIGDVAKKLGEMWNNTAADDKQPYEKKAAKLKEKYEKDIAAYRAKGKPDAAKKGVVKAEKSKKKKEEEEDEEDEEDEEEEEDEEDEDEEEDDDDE
UniProt P17096: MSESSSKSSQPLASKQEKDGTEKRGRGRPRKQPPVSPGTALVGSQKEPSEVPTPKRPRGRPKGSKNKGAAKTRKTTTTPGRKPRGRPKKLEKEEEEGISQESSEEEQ
UniProt Q9NX55: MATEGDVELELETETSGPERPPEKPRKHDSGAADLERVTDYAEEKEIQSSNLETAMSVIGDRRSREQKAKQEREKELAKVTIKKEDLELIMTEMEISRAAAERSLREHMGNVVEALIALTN
UniProt Q9NSE4: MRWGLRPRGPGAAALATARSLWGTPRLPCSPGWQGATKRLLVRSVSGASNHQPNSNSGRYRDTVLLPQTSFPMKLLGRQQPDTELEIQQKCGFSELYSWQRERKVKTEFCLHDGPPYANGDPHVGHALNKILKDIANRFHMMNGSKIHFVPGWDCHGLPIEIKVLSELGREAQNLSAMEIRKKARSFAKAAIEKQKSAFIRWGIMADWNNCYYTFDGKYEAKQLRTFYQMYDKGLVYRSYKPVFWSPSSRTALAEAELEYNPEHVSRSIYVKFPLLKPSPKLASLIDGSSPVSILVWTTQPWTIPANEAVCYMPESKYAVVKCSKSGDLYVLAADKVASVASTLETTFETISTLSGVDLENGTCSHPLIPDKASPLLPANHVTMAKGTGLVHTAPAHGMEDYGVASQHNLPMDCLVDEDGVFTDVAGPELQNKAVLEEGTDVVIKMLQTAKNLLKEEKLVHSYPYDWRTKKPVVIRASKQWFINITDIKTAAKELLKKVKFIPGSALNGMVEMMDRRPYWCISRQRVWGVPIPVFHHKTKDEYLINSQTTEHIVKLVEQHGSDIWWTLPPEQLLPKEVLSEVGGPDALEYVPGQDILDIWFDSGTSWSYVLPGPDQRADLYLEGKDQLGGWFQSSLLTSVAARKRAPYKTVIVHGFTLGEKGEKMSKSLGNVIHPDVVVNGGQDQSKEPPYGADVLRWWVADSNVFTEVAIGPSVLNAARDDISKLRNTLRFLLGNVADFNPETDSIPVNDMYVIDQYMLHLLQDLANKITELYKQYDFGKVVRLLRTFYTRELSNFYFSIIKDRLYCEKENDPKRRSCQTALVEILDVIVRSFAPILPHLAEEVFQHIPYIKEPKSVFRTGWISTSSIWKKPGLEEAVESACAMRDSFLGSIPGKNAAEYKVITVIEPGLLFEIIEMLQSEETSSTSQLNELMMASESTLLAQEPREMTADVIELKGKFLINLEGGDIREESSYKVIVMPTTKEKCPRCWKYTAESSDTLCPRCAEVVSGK
UniProt P14625, whole entry, looked up: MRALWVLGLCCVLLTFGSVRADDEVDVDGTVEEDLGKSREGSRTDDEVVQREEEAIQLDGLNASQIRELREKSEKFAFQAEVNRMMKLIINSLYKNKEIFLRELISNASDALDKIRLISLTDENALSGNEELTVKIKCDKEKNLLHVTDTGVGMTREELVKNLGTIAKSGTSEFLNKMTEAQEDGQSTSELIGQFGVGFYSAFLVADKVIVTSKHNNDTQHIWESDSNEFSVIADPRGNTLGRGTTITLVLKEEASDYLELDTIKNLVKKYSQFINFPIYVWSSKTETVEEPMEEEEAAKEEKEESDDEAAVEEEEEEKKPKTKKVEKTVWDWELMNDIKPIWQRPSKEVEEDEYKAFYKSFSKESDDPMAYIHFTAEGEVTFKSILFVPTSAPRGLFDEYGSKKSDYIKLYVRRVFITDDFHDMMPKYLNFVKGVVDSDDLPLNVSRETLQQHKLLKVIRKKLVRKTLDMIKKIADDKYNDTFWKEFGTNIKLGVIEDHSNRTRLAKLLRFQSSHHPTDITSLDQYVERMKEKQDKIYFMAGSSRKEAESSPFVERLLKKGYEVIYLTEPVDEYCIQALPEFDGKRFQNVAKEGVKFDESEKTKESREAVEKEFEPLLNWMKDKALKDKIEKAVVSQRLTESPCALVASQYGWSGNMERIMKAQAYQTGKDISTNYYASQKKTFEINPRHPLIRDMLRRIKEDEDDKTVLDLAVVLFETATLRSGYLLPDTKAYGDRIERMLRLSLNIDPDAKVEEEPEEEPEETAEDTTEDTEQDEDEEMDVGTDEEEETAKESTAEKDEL
UniProt P08238, whole entry, looked up: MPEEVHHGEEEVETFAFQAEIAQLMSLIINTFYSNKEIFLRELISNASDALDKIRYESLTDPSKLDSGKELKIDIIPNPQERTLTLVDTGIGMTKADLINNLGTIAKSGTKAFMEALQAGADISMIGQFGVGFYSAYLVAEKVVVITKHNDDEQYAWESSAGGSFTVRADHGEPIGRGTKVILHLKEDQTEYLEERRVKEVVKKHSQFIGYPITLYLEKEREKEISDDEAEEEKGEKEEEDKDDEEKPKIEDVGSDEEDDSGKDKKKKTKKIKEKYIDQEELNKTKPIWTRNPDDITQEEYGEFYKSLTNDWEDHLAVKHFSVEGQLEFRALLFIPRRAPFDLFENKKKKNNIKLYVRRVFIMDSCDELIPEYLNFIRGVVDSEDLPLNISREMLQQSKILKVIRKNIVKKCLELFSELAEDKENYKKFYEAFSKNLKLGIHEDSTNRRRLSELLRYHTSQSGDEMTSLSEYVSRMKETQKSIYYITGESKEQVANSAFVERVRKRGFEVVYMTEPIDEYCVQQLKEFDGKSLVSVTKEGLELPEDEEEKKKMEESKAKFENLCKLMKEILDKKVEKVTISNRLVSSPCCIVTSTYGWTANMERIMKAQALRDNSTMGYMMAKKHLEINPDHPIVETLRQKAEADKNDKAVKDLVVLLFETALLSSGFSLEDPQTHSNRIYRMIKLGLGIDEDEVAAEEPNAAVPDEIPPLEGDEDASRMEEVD
UniProt P56937: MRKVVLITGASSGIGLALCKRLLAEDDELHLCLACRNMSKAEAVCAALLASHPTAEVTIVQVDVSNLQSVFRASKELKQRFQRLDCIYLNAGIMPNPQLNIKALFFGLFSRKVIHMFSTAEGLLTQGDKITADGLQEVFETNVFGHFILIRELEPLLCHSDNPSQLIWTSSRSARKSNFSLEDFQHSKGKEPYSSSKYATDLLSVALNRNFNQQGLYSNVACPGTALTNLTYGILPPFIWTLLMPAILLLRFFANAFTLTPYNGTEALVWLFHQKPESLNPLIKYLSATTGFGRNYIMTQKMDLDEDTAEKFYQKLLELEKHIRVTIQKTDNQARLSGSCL
UniProt P11021: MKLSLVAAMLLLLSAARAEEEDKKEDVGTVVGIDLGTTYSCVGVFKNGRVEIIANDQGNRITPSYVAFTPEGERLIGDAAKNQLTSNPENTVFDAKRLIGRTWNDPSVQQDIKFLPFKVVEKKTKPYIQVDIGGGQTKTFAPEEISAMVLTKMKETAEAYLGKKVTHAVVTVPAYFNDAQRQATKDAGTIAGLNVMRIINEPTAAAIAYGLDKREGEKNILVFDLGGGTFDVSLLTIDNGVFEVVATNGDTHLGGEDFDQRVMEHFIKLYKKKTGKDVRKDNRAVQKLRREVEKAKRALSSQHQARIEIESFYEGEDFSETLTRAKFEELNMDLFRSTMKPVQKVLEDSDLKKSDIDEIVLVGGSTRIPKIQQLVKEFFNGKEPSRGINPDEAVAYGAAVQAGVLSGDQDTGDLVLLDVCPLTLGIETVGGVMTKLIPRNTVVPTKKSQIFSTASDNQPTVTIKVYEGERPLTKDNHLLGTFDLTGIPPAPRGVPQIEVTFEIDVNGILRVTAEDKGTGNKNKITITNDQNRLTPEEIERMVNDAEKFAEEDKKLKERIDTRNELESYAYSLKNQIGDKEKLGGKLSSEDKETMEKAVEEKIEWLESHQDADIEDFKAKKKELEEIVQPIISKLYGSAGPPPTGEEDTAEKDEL
UniProt O43464: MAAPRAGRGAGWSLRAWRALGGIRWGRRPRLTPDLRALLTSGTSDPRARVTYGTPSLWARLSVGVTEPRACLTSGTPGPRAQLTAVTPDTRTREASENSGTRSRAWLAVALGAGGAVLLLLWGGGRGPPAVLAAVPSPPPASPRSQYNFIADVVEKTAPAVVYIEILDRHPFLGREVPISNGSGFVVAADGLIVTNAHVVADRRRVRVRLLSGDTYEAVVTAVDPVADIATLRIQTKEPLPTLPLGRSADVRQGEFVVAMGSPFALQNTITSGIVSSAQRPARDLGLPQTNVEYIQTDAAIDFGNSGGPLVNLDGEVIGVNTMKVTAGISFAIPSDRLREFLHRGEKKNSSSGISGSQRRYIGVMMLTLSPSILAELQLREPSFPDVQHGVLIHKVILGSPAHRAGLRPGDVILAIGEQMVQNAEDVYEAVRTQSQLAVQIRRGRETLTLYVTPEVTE
UniProt Q14527: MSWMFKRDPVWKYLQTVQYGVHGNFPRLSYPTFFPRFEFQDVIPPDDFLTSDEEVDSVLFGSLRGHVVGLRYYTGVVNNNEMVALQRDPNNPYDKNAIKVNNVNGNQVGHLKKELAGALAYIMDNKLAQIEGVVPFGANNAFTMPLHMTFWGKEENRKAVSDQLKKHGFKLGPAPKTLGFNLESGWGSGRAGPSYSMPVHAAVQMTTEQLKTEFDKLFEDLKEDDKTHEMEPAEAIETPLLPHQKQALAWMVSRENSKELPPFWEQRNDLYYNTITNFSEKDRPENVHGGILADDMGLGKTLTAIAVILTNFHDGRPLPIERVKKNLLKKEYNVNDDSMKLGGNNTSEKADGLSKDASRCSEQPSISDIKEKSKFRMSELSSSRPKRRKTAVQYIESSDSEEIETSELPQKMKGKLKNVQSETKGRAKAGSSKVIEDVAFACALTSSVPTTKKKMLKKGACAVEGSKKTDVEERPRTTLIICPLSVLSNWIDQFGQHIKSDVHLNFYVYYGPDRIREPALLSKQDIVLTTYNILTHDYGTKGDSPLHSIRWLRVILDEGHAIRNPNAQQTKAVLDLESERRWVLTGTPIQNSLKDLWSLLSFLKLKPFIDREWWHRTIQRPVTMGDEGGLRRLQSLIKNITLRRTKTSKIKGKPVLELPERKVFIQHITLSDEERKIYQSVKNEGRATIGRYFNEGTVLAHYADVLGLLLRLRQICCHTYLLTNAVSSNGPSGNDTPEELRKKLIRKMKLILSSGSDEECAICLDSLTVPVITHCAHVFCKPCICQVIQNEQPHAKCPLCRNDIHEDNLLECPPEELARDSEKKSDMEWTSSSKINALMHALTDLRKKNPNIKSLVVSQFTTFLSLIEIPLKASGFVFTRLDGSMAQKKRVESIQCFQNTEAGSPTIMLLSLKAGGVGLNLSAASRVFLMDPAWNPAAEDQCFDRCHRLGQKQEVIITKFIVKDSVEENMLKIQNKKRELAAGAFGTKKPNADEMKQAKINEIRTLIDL

Tests used:
Assay in all cases: log2 fold change, soluble protein after heating vs DMSO (PISA); higher = thermal stabilisation; K562 cells, 10 uM, 30 min; active = over 0.2 and 3.5 SD of the protein, either way, in both replicates (recomputed)
[1] = compound: CS(=O)(=O)c1ccc(-c2cnc(N)c(C(=O)Nc3ccccc3)n2)cc1
How it was run: (§1)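 K562 cells at 2×10^6 cells/mL were treated for 30 min with 10 μM compound, and aliquots were heated for 3 min over 48°C-58°C before pooling. Extraction used PBS with 0.5% NP-40 at 4°C, and soluble protein was the supernatant after 21,000xg for 90 min, measured by TMTpro 16plex LC-MS/MS with channel sums equalised. Thermal stability values, relative to control samples and from duplicates, are log2 fold changes.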

[2] = compound: C[C@@H](Oc1cc(-c2cnn(C3CCNCC3)c2)cnc1N)c1c(Cl)ccc(F)c1Cl [crizotinib]
How it was run: as §1

[3] = compound: C[C@@H]1COCCN1C2=NC(=NC(=C2)C3(CC3)S(=O)(=O)C)C4=C5C=CNC5=CC=C4
How it was run: as §1

[4] = compound: C[C@H](C1=CC=C(C=C1)C(=O)NC2=C3C=CNC3=NC=C2)N
How it was run: as §1

[5] = compound: C[C@H](Nc1ncnc2nc[nH]c12)c1cc2cccc(Cl)c2c(=O)n1-c1ccccc1 [duvelisib]
How it was run: as §1

[6] = compound: Cc1cc(Nc2cc(CN3CCOCC3)c3nc(C)c(Cc4ccc(Cl)cc4F)n3n2)n[nH]1 [gandotinib]
How it was run: as §1

[7] = compound: Cc1cc(Nc2cc(N3CCN(C)CC3)nc(Sc3ccc(NC(=O)C4CC4)cc3)n2)n[nH]1 [tozasertib]
How it was run: as §1

[8] = compound: Cc1cc(SCc2sc(-c3ccc(C(F)(F)F)cc3)nc2C)ccc1OCC(=O)O
How it was run: as §1

[9] = compound: Cc1ccc(-n2nc(C(C)(C)C)cc2NC(=O)Nc2ccc(OCCN3CCOCC3)c3ccccc23)cc1 [doramapimod]
How it was run: as §1

[10] = compound: Cc1ccc(C(=O)N(CCCN)[C@@H](c2nc3cc(Cl)ccc3c(=O)n2Cc2ccccc2)C(C)C)cc1 [ispinesib]
How it was run: as §1

Target | log2 fold change [1] | log2 fold change [2] | log2 fold change [3] | log2 fold change [4] | log2 fold change [5] | log2 fold change [6] | log2 fold change [7] | log2 fold change [8] | log2 fold change [9] | log2 fold change [10]
HS2ST1 (UniProt Q7LGA3) | inactive: 0.009 | inactive: 0.056 | inactive: -0.045 | inactive: 0.011 | inactive: -0.045 | inactive: 0.144 | inactive: -0.01 | inactive: -0.106 | inactive: -0.028 | inactive: -0.021
HNRNPH3 (UniProt P31942) | inactive: -0.075 | inactive: -0.089 | inactive: -0.181 | inactive: 0.516 | inactive: -0.072 | inactive: 0.207 | inactive: -0.013 | inactive: 0.125 | inactive: 0.059 | inactive: -0.151
HIBCH (UniProt Q6NVY1) | inactive: 0.032 | inactive: -0.054 | inactive: 0.161 | inactive: -0.023 | inactive: 0.036 | inactive: -0.088 | inactive: -0.057 | inactive: 0.041 | inactive: -0.009 | inactive: -0.05
HSCB (UniProt Q8IWL3) | inactive: 0.081 | inactive: -0.022 | inactive: -0.006 | inactive: -0.074 | inactive: 0.068 | inactive: -0.001 | inactive: 0.036 | inactive: -0.048 | inactive: 0.082 | inactive: -0.015
HP1BP3 (UniProt Q5SSJ5) | inactive: 0.002 | inactive: -0.121 | inactive: -0.013 | inactive: 0.163 |  | inactive: 0.039 |  | inactive: 0.121 | inactive: 0.035 | inactive: -0.079
HMGCS1 (UniProt Q01581) | inactive: 0.032 | inactive: 0.01 | inactive: 0.006 | inactive: -0.066 | inactive: 0.039 | inactive: -0.003 | inactive: -0.041 | inactive: -0.045 | inactive: -0.015 | inactive: 0.006
HM13 (UniProt Q8TCT9) | inactive: -0.01 | inactive: -0.035 | inactive: 0.115 | inactive: -0.055 |  | inactive: -0.143 | inactive: 0.017 |  | inactive: 0.002 | inactive: 0.06
HMGB1 (UniProt P09429) | inactive: -0.016 | inactive: -0.106 | inactive: -0.092 | inactive: -0.042 | inactive: -0.003 | inactive: -0.05 | inactive: -0.052 | inactive: 0.006 | inactive: 0.006 | inactive: 0.011
HSP90AB4P (UniProt Q58FF6) | inactive: 0.05 | inactive: -0.081 | inactive: 0.035 | inactive: -0.045 | inactive: 0.074 |  | inactive: -0.126 | inactive: -0.114 | inactive: 0.122 | 
HMGA1 (UniProt P17096) | inactive: -0.14 | inactive: 0.008 | inactive: -0.244 | inactive: 0.126 | inactive: -0.153 | inactive: -0.033 | inactive: 0.014 | inactive: -0.045 | inactive: 0.056 | inactive: -0.13
HMG20A (UniProt Q9NP66) | inactive: -0.042 | inactive: 0.07 | inactive: -0.018 | inactive: -0.199 |  | inactive: 0.104 |  | inactive: -0.087 | inactive: 0.071 | inactive: 0.352
HTATIP2 isoform 3 (UniProt Q9BUP3) | inactive: 0.014 | inactive: -0.106 | inactive: 0.023 | inactive: -0.145 | active: 0.294 | inactive: 0.003 |  | inactive: 0.027 | inactive: 0.003 | inactive: -0.111
HYPK (UniProt Q9NX55) | inactive: 0.005 | inactive: 0.01 | inactive: 0.056 | inactive: -0.013 | inactive: 0.055 | inactive: -0.028 | inactive: -0.03 | inactive: -0.031 | inactive: 0.04 | inactive: 0.041
IARS2 (UniProt Q9NSE4) | inactive: 0.003 | inactive: 0.029 | inactive: 0.007 | inactive: -0.073 | inactive: 0.013 | inactive: 0.025 | inactive: -0.005 | inactive: -0.03 | inactive: -0.033 | inactive: 0.03
HSP90B1 (UniProt P14625) | inactive: 0.009 | inactive: 0.054 | inactive: 0.009 | inactive: -0.015 | inactive: 0.006 | inactive: -0.021 | inactive: -0.008 | inactive: -0.021 | inactive: 0 | inactive: -0.004
HSP90AB1 (UniProt P08238) | inactive: 0.029 | inactive: -0.012 | inactive: 0.014 | inactive: -0.038 | inactive: 0.011 | inactive: -0.08 | inactive: 0.017 | inactive: 0.044 | inactive: -0.048 | inactive: 0.019
ICAM5 (UniProt Q9UMF0) | inactive: -0.052 | inactive: 0.177 | inactive: 0.078 | inactive: -0.053 | inactive: 0.233 |  | inactive: -0.068 | inactive: -0.133 | inactive: -0.006 | inactive: -0.134
HNRNPA1 (UniProt H0YH80) | inactive: -0.122 | inactive: -0.034 | inactive: -0.646 | inactive: 0.43 |  | inactive: 0.214 | inactive: 0.094 |  | inactive: 0.132 | inactive: -0.019
HUS1 (UniProt O60921) | inactive: -0.019 | inactive: 0.017 | inactive: 0.047 | inactive: -0.047 | inactive: 0.012 | inactive: -0.073 | inactive: -0.019 | inactive: -0.002 | inactive: -0.003 | inactive: 0.013
HIP1 (UniProt O00291) | inactive: 0.054 | inactive: -0.131 | inactive: 0.035 | inactive: -0.002 |  | inactive: 0.029 |  | inactive: 0.027 | inactive: 0 | inactive: -0.033

An excerpt of these results, as a markdown table.

| Target | log2 fold change [1] | log2 fold change [2] | log2 fold change [3] | log2 fold change [4] | log2 fold change [5] | log2 fold change [6] | log2 fold change [7] | log2 fold change [8] | log2 fold change [9] | log2 fold change [10] |
| --- | --- | --- | --- | --- | --- | --- | --- | --- | --- | --- |
| HS2ST1 (UniProt Q7LGA3) | inactive: 0.009 | inactive: 0.056 | inactive: -0.045 | inactive: 0.011 | inactive: -0.045 | inactive: 0.144 | inactive: -0.01 | inactive: -0.106 | inactive: -0.028 | inactive: -0.021 |
| HIBCH (UniProt Q6NVY1) | inactive: 0.032 | inactive: -0.054 | inactive: 0.161 | inactive: -0.023 | inactive: 0.036 | inactive: -0.088 | inactive: -0.057 | inactive: 0.041 | inactive: -0.009 | inactive: -0.05 |
| HSCB (UniProt Q8IWL3) | inactive: 0.081 | inactive: -0.022 | inactive: -0.006 | inactive: -0.074 | inactive: 0.068 | inactive: -0.001 | inactive: 0.036 | inactive: -0.048 | inactive: 0.082 | inactive: -0.015 |
| HMGCS1 (UniProt Q01581) | inactive: 0.032 | inactive: 0.01 | inactive: 0.006 | inactive: -0.066 | inactive: 0.039 | inactive: -0.003 | inactive: -0.041 | inactive: -0.045 | inactive: -0.015 | inactive: 0.006 |
| HM13 (UniProt Q8TCT9) | inactive: -0.01 | inactive: -0.035 | inactive: 0.115 | inactive: -0.055 |  | inactive: -0.143 | inactive: 0.017 |  | inactive: 0.002 | inactive: 0.06 |
| HYPK (UniProt Q9NX55) | inactive: 0.005 | inactive: 0.01 | inactive: 0.056 | inactive: -0.013 | inactive: 0.055 | inactive: -0.028 | inactive: -0.03 | inactive: -0.031 | inactive: 0.04 | inactive: 0.041 |
| HSP90B1 (UniProt P14625) | inactive: 0.009 | inactive: 0.054 | inactive: 0.009 | inactive: -0.015 | inactive: 0.006 | inactive: -0.021 | inactive: -0.008 | inactive: -0.021 | inactive: 0 | inactive: -0.004 |
| HIP1 (UniProt O00291) | inactive: 0.054 | inactive: -0.131 | inactive: 0.035 | inactive: -0.002 |  | inactive: 0.029 |  | inactive: 0.027 | inactive: 0 | inactive: -0.033 |

(cont.)

Target | log2 fold change [1] | log2 fold change [2] | log2 fold change [3] | log2 fold change [4] | log2 fold change [5] | log2 fold change [6] | log2 fold change [7] | log2 fold change [8] | log2 fold change [9] | log2 fold change [10]
HSD17B7 (UniProt P56937) | inactive: 0.009 | inactive: -0.092 | inactive: 0.064 | inactive: -0.072 | inactive: 0.043 | inactive: -0.08 | inactive: -0.076 | inactive: 0 | inactive: -0.086 | inactive: -0.085
IBA57 (UniProt Q5T440) | inactive: 0.027 | inactive: 0.09 | inactive: 0.058 | inactive: 0.043 | inactive: -0.004 | inactive: 0.011 | inactive: -0.045 | inactive: 0.043 | inactive: -0.017 | inactive: 0.056
HIBADH (UniProt P31937) | inactive: -0.02 | inactive: 0.04 | inactive: 0.065 | inactive: -0.048 | inactive: 0.014 | inactive: -0.011 | inactive: -0.015 | inactive: -0.016 | inactive: 0.031 | inactive: 0.023
HRC (UniProt P23327) | inactive: 0.027 | inactive: 0.096 | active: -0.342 | inactive: 0.012 |  | inactive: 0.064 |  | inactive: -0.033 | inactive: -0.033 | inactive: 0.037
HNRNPK isoform 2 (UniProt P61978) | inactive: -0.01 | inactive: 0.072 | inactive: 0.074 | inactive: -0.028 |  | inactive: -0.108 |  | inactive: 0.052 | inactive: -0.064 | inactive: -0.025
HMGN3 (UniProt Q15651) | inactive: 0 | inactive: -0.095 | inactive: -0.222 | inactive: -0.192 | inactive: -0.128 | inactive: 0.065 | inactive: 0.069 | inactive: -0.012 | inactive: -0.006 | inactive: -0.038
IARS (UniProt P41252) | inactive: 0.096 | inactive: -0.119 | inactive: -0.309 | inactive: 0.464 | inactive: -0.097 | inactive: 0.109 | inactive: 0.019 | inactive: 0.121 | inactive: 0.321 | inactive: -0.342
HSPA8 (UniProt P11142) | inactive: 0.003 | inactive: 0.039 | inactive: -0.048 | inactive: -0.009 |  | inactive: 0.014 |  | inactive: -0.003 | inactive: -0.008 | inactive: 0.028
HSPA5 (UniProt P11021) | inactive: -0.005 | inactive: 0.011 | inactive: -0.007 | inactive: -0.028 | inactive: -0.024 | inactive: -0.043 | inactive: -0.003 | inactive: -0.017 | inactive: 0.001 | inactive: 0.012
HMCN1 (UniProt Q96RW7) | inactive: -0.286 | inactive: -0.023 | inactive: -0.021 | inactive: 0.144 | inactive: -0.318 | inactive: -0.353 | inactive: -0.041 | inactive: -0.249 | inactive: 0.063 | inactive: -0.001
HMGCR isoform 3 (UniProt P04035) | inactive: -0.259 | inactive: 0.071 | inactive: -0.234 | inactive: -0.004 |  | inactive: 0.092 |  | inactive: -0.065 | inactive: 0.025 | inactive: 0.111
HTRA2 (UniProt O43464) | inactive: 0.022 | inactive: 0.055 | inactive: 0.039 | inactive: -0.045 | inactive: 0.035 | inactive: 0.007 | inactive: 0.015 | inactive: -0.039 | inactive: -0.039 | inactive: -0.016
HMGN4 (UniProt O00479) | inactive: -0.457 | inactive: 0.028 | inactive: -0.357 | inactive: -0.433 | inactive: -0.129 | inactive: 0.028 | inactive: 0 | inactive: -0.182 | inactive: 0.164 | inactive: 0.253
HOXB9 (UniProt P17482) | inactive: -0.015 | inactive: -0.036 | inactive: 0.067 | inactive: -0.033 | inactive: -0.003 |  | inactive: 0.093 | inactive: 0.023 | inactive: 0.007 | inactive: -0.041
HLTF (UniProt Q14527) | inactive: -0.034 | inactive: 0.045 | inactive: -0.143 | inactive: 0.006 |  | inactive: -0.078 |  | inactive: 0.063 | inactive: -0.003 | inactive: 0.006
HNRNPD (UniProt Q14103) | inactive: -0.097 | inactive: 0.099 | inactive: -0.218 | inactive: 0.202 | inactive: -0.119 | inactive: 0.106 | inactive: -0.011 | inactive: -0.017 | inactive: 0.052 | inactive: -0.071
HUWE1 (UniProt Q7Z6Z7) | inactive: -0.002 | inactive: -0.03 | inactive: 0.003 | inactive: -0.007 | inactive: 0.005 | inactive: -0.084 | inactive: 0.041 | inactive: 0.051 | inactive: 0.007 | inactive: 0.011
HINT2 (UniProt Q9BX68) |  |  |  |  |  |  | inactive: 0.162 |  |  | 
HIST2H2BC (UniProt Q6DN03) |  |  |  |  |  |  | inactive: 0.03 |  |  | 
